{"source": "patent US9586958B2", "about": "“Prodrug derivatives of substituted triazolopyridines” (BAYER PHARMA AKTIENGESELLSCHAFT, priority 2013, dated 2017)", "key": {"[1]": {"experiment": "Metabolic stability in vitro, rat liver microsomes (calculation of Fmax)", "format": "in vitro ADME", "conditions": "determined by means of rat liver microsomes", "procedure": "(§1) The metabolic stability of test compounds in vitro was determined by incubating them at 1 μM with a suspension liver microsomes in 100 mM phosphate buffer, pH7.4 (NaH2PO4×H2O+Na2HPO4×2H2O) at a protein concentration of 0.5 mg/mL and at 37° C. The reaction was activated by adding a co-factor mix containing 1.2 mg NADP, 3 IU glucose-6-phosphate dehydrogenase, 14.6 mg glucose-6-phosphate and 4.9 mg MgCl2 in phosphate buffer, pH 7.4. Organic solvent in the incubations was limited to <0.2% dimethylsulfoxide (DMSO) and <1% methanol. During incubation, the microsomal suspensions were continuously shaken and aliquots were taken at 2, 8, 16, 30, 45 and 60 min, to which equal volumes of cold methanol were immediately added. Samples were frozen at −20° C. over night, subsequently centrifuged for 15 minutes at 3000 rpm and the supernatant was analyzed with an Agilent 1200 HPLC-system with LCMS/MS detection.\n(§2) The half-life of a test compound was determined from the concentration-time plot. From the half-life the intrinsic clearances were calculated. Together with the additional parameters liver blood flow, specific liver weight and microsomal protein content the hepatic in vivo blood clearance (CL) and the maximal oral bioavailability (Fmax) were calculated for the different species. The following parameter values were used: Liver blood flow—1.3 L/h/kg (human), 2.1 L/h/kg (dog), 4.2 L/h/kg (rat); specific liver weight—21 g/kg (human), 39 g/kg (dog), 32 g/kg (rat); microsomal protein content—40 mg/g.\n(§3) With the described assay only phase-I metabolism of microsomes is reflected, e.g. typically oxidoreductive reactions by cytochrome P450 enzymes and flavin mono-oxygenases (FMO) and hydrolytic reactions by esterases (esters and amides)."}, "[2]": {"experiment": "Metabolic stability in vitro, dog liver microsomes (calculation of Fmax)", "format": "in vitro ADME", "conditions": "determined by means of dog liver microsomes", "procedure": "as §1, §2, §3"}}, "note": "Some of these results come from one statement about several compounds together.", "data": [{"smiles": "COc1cc(C(=O)N2CC(F)C2)ccc1Nc1nc2ccc(-c3ccc(NC(=O)[C@H](C)c4ccc(F)cc4)cc3)cn2n1", "note": "[Compound A3, (2R)-N-{4-[2-({4-[(3-fluoroazetidin-1-yl)carbonyl]-2-methoxyphenyl}amino)-[1,2,4]triazolo[1,5-α]pyridin-6-yl]phenyl}-2-(4-fluorophenyl)propanamide]", "values": [{"measurement": "maximum oral bioavailability (Fmax) in rat", "setting": "[1]", "result": "higher than 70%"}, {"measurement": "maximum oral bioavailability (Fmax) in dog", "setting": "[2]", "result": "higher than 50%"}]}, {"smiles": "C[C@@H](C(=O)Nc1ccc(-c2ccc3nc(Nc4ccc(S(C)(=O)=O)cc4OCC(F)(F)F)nn3c2)cc1)c1ccc(F)cc1", "note": "[Compound A2, (2R)-2-(4-fluorophenyl)-N-[4-(2-{[4-(methylsulfonyl)-2-(2,2,2-trifluoro-ethoxy)phenyl]amino}[1,2,4]triazolo[1,5-α]pyridin-6-yl)phenyl]-propanamide]", "values": [{"measurement": "maximum oral bioavailability (Fmax) in rat", "setting": "[1]", "result": "higher than 70%"}, {"measurement": "maximum oral bioavailability (Fmax) in dog", "setting": "[2]", "result": "higher than 50%"}]}, {"smiles": "COc1cc(C(=O)N2CCC2)ccc1Nc1nc2ccc(-c3ccc(NC(=O)[C@H](C)c4ccc(F)cc4)cc3)cn2n1", "note": "[Compound A4, (2R)-N-[4-(2-{[4-(azetidin-1-ylcarbonyl)-2-methoxyphenyl]amino}[1,2,4]-triazolo[1,5-α]pyridin-6-yl)phenyl]-2-(4-fluorophenyl)propanamide]", "values": [{"measurement": "maximum oral bioavailability (Fmax) in rat", "setting": "[1]", "result": "higher than 70%"}, {"measurement": "maximum oral bioavailability (Fmax) in dog", "setting": "[2]", "result": "higher than 50%"}]}, {"smiles": "C[C@@H](C(=O)Nc1ccc(-c2ccc3nc(Nc4ccc(C(=O)N5CC(F)C5)cc4OCC(F)(F)F)nn3c2)cc1)c1ccc(F)cc1", "note": "[Compound A5, (2R)-N-{4-[2-({4-[(3-fluoroazetidin-1-yl)carbonyl]-2-(2,2,2-trifluoroethoxy)phenyl}amino)[1,2,4]triazolo[1,5-α]pyridin-6-yl]phenyl}-2-(4-fluorophenyl)propanamide]", "values": [{"measurement": "maximum oral bioavailability (Fmax) in rat", "setting": "[1]", "result": "higher than 70%"}, {"measurement": "maximum oral bioavailability (Fmax) in dog", "setting": "[2]", "result": "higher than 50%"}]}, {"smiles": "COc1cc(S(C)(=O)=O)ccc1Nc1nc2ccc(-c3ccc(NC(=O)[C@H](C)c4ccc(F)cc4)cc3)cn2n1", "note": "[Compound A1, (2R)-2-(4-fluorophenyl)-N-[4-(2-{[2-methoxy-4-(methylsulfonyl)phenyl]-amino}[1,2,4]triazolo[1,5-α]pyridin-6-yl)phenyl]propanamide]", "values": [{"measurement": "maximum oral bioavailability (Fmax) in rat", "setting": "[1]", "result": "higher than 70%"}, {"measurement": "maximum oral bioavailability (Fmax) in dog", "setting": "[2]", "result": "higher than 50%"}]}]}
